The target of this series is cGAS (Homo sapiens) (UniProt Q8N884). Nature of the series: EMSA. Particulars: binds at lower cGAS concentration than 30 bp DNA.

Protein sequences, listed by entry. Tags and fused reporters are not part of them.
UniProt Q8N884, whole entry: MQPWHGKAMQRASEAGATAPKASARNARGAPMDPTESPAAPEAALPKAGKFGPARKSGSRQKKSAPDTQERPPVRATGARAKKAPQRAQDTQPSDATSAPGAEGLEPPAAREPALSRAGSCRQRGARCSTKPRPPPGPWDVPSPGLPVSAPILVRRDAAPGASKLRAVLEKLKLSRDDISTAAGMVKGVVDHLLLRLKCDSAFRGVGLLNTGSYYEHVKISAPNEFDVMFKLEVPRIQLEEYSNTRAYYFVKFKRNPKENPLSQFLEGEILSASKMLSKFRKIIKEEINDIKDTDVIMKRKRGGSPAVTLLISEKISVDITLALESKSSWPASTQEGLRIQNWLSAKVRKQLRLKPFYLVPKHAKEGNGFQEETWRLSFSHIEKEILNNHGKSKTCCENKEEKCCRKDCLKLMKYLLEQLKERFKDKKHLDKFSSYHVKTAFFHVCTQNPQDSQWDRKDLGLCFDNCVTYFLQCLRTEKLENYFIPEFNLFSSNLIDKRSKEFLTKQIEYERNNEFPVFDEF

For at least one entry, the source does not settle the construct or the ends of the probe.

This note sets out measurements from doi:10.1101/2024.03.08.584184.

Take “TTAATAACATCGAGCATTAGGGAGCCGCTAGTTCGATTGTATTAATAACAAGGACTGTCCCTATTAACCTTGCCGGATCTGAAGCGACACCGTGTTACTTGATGCCACAAGAGTAACACGAACTTAATTATCGCCGTCGGGAGCGTTGCCTGTCGTCTTCTAGCCAATGTATACCATCAAGGTGAACCGCTTAGTTAGGA (double strand) [200bp Oligo (same sequence as Scramble 1)]”: the binding result was “binds”.
